Test results from PMC7112222, “Investigation of pyrimidine nucleoside analogues as chemical probes to assess compound effects on the proliferation of Trypanosoma cruzi intracellular parasites” (PLoS Neglected Tropical Diseases, 2020).

Test system: T. cruzi intracellular amastigotes
Assay: Image-based assay of the number of T. cruzi infected cells (intracellular amastigotes in 3T3 host cells)
Format: cell-based, Trypanosoma cruzi
Procedure: Parasites and host cells were maintained as outlined previously. Briefly, host 3T3 fibroblasts (ATCC, CCL-92) were grown in RPMI medium (Thermo Fisher Scientific, USA) with no phenol red, supplemented with 10% FBS (Thermo Fisher Scientific, USA) and incubated at 37°C in 5% CO2. Host cells were harvested at 70% confluency and were split every 2–3 days in 175 cm^2 flasks. 3T3 cells were cultured up to passage 7 as contact inhibition was reduced or lost at higher passages. Prior to infection with T. cruzi trypomastigotes, host cells were seeded at 1.2 x 10^6 cells in 75 cm^2 or 4 x 10^5 cells in 25 cm^2 flasks and grown for 24 hours before parasite addition. […]
The activity of the nucleoside analogues against T. cruzi intracellular amastigotes following 24, 48 hours exposure and compound wash off, was determined using image-based techniques as previously described. […]
IC50 values for inhibitory activity of both the nucleoside analogues tested as DNA probes and known inhibitors tested to determine their effect on replication of T. cruzi were calculated in GraphPad Prism 5, using sigmoidal dose response with variable slope. […] The p-value for difference in the % activity at Emax concentrations for compounds with known activity (EdU identified parasites, compared to Hoechst identified parasites) against T. cruzi was determined using GraphPad Prism 5, using an unpaired student’s t-test. […]

SMILES: C#Cc1cn([C@H]2C[C@H](O)[C@@H](CO)O2)c(=O)[nH]c1=O [EdU, 5-ethynyl-2′-deoxy-uridine]
- fold increase in the IC50 value following wash off (48 hours incubation, wash off, further 72 hours vs 48 hours): 10 fold
- fold increase in activity against T. cruzi, 48 vs 24 hours incubation (IC50 24 h vs 48 h): 1.8 fold
